For assay [1], the target named is SkaH(D550A) (fusion to a split adenylate cyclase fragment) (Caulobacter crescentus). Put plainly: two-hybrid; bacterial two-hybrid in E. coli BTH101; kinases fused to the C-terminus of the T25 and T18c fragments of adenylate cyclase; colour of spots on LB agar with X-gal and 0.5 mM IPTG after 36 hours at 30°C.
Assay [2] has as its target SkaH(H285A) (fusion to a split adenylate cyclase fragment) (Caulobacter crescentus). The assay is described as above.
In assay [3] the target is MBP-SkaH (Caulobacter crescentus). Put plainly: pull-down; fusions co-expressed in C. crescentus; cleared lysate loaded on amylose resin (MBP held), washed with 30-50 ml of 25 mM Tris pH 7.6, 125 mM NaCl, eluted with 40 mM maltose; co-purifying kinases detected by Western blot against HA or FLAG. In general terms: Immunoblotting shows a protein as a band on a membrane.

Substitutions are numbered along the chain they refer to. In names and notes the source's numbering stands. These are yes or no findings as the source states them, for the method shown. A result given as binding can be weak or reduced; the word gives no strength. Where a sequence is shown, tags or fusion partners need not be part of it. For some assays here: Binding seen in cells or lysates may run through a third protein.

B1: LovK(H180A) (fusion to a split adenylate cyclase fragment) (protein, UniProt Q9ABE3 1-368)
chain: MEDYSESRRAGERLAAGHGVDDPFAAAISATRMAMIVADATQPDIPIIFANDAFLRLTGYARDEVIGRNCRFLQGPDTDPKAIQAVRDALAAGEDVAVDLLNYRKDGSPFWNALNMSPVRNDAGQLVYFFGSQVDVTDKKVVELRARDHSDGLQQMVEERTRELTEALKQKTALLHEVDARVKNNLQLISSLLLLQNRRVPDPAVKASLRGMLGRVNAIATVHRRLFQSEDVERFDVSAFIRDMVADLMGSAMRDDIRVELDLERVEIPAAKAAPLALVVNELLTNALRHGFPEGRGGRIFVGLSRLNGDFRIEITDDGVGQDRETRASGFGLTIVQLLCQQLKAKWETTDAEPGTRVVVLLPINGTQ
As to B1, the binding result in assay [1] and in assay [2] was “binds” each time.

B2: LovK (fusion to the T25 or T18c fragment of adenylate cyclase) (protein, UniProt Q9ABE3 1-368)
chain: B1 chain with A180H
As to B2, the binding entry in assay [1] and in assay [2] was “binds” throughout.

B3: HA-LovK (protein, UniProt Q9ABE3 1-368)
chain: B1 chain with A180H
For the molecule B3, the binding entry in assay [3] is recorded as “binds”.
